# The list shows a part of the results. The data scatter; read single values as rough.
# Chains of the proteins cited; added tags and fusions are not shown. Lines headed by an entry give the natural chain unless they say otherwise; changes in a name come on top. Residues count along the entry.
# UniProt O00401: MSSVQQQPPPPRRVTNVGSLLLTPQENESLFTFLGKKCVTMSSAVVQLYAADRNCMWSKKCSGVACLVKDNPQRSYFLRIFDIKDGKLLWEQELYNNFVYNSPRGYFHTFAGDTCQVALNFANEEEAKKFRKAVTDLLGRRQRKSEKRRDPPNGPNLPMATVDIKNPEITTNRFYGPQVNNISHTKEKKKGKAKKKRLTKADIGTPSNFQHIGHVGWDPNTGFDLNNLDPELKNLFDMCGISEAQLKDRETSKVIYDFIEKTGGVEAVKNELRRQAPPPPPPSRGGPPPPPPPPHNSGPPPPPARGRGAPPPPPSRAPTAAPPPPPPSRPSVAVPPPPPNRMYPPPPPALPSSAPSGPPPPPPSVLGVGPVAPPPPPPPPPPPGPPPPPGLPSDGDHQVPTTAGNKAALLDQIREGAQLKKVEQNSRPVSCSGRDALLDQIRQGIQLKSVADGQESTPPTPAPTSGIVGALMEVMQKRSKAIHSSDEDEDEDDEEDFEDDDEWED
# UniProt Q8NCP5: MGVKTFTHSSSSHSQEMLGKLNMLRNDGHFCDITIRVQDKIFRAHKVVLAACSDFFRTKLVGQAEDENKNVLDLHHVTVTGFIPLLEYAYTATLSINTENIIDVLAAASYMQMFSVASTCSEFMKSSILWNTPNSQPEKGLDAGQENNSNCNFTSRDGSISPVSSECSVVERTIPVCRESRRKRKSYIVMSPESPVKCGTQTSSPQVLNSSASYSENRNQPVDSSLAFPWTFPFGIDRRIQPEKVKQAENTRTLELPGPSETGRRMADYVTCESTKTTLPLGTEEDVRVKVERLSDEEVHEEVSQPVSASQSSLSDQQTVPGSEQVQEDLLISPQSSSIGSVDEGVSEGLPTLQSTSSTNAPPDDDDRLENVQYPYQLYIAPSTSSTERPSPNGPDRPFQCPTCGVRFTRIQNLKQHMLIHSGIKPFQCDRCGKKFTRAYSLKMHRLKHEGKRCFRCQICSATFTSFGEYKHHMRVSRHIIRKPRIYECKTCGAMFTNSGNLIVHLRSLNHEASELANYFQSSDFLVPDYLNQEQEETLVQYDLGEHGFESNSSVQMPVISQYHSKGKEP
# UniProt O75717: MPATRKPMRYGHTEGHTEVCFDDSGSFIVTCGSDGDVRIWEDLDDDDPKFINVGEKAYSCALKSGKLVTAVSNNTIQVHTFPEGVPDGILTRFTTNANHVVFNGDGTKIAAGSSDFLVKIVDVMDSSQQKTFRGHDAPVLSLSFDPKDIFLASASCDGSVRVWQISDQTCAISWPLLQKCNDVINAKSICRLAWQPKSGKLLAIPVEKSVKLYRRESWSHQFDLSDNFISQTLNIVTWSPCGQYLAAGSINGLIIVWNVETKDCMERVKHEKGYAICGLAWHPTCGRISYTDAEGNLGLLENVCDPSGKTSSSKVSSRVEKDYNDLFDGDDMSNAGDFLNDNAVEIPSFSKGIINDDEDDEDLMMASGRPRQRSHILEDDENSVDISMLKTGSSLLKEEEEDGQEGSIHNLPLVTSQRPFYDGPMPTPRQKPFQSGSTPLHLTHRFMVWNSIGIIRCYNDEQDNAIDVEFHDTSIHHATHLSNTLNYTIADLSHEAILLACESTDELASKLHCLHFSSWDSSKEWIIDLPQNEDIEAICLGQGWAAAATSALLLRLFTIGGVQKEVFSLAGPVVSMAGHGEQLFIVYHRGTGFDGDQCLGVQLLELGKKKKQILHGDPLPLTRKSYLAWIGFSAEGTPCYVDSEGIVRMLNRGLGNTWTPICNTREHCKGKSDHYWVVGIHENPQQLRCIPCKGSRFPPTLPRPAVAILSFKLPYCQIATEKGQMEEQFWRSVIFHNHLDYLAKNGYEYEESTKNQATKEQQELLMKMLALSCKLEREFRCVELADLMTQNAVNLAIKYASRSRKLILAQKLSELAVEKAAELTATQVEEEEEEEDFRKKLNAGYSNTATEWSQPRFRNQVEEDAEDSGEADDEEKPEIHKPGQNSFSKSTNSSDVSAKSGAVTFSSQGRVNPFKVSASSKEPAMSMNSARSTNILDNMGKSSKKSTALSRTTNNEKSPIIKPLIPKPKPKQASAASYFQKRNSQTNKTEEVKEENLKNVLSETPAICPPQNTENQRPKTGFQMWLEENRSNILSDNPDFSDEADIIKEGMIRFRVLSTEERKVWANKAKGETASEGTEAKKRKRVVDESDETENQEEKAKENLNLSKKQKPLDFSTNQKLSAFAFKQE
# UniProt Q14191, whole entry, looked up: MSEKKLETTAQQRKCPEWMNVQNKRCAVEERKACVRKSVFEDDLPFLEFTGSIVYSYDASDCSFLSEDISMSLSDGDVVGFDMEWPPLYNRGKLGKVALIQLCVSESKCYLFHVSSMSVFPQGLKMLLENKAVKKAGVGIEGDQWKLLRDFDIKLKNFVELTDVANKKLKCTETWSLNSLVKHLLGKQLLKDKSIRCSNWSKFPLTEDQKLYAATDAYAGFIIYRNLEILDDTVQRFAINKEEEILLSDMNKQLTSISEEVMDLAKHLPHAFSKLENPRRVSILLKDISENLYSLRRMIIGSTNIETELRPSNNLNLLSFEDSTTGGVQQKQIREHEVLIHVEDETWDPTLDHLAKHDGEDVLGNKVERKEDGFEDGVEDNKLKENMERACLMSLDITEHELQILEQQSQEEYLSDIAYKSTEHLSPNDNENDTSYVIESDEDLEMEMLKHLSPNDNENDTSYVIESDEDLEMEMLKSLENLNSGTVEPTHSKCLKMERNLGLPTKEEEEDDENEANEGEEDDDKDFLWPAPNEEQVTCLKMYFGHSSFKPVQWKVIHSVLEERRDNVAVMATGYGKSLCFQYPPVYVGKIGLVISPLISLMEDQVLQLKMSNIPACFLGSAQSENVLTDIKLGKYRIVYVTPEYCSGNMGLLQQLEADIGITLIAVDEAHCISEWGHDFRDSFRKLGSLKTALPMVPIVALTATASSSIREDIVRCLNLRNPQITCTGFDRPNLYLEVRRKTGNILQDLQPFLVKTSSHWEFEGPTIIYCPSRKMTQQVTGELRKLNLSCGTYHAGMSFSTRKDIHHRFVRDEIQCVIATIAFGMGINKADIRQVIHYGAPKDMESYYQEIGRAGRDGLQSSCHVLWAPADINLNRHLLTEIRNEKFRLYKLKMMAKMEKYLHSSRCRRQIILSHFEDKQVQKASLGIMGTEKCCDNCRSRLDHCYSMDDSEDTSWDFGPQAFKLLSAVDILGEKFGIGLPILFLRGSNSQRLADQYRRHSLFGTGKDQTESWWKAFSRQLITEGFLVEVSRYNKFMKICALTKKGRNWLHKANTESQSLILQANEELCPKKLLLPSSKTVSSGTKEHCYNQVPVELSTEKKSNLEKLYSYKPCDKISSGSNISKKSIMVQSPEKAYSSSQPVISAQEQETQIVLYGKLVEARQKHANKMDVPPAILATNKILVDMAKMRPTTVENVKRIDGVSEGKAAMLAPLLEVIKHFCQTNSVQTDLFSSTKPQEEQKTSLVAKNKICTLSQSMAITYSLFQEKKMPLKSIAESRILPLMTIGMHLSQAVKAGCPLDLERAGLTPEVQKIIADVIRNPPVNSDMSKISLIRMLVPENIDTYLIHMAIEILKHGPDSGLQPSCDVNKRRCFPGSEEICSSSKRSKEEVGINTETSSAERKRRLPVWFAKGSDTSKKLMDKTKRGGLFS
# UniProt O75132: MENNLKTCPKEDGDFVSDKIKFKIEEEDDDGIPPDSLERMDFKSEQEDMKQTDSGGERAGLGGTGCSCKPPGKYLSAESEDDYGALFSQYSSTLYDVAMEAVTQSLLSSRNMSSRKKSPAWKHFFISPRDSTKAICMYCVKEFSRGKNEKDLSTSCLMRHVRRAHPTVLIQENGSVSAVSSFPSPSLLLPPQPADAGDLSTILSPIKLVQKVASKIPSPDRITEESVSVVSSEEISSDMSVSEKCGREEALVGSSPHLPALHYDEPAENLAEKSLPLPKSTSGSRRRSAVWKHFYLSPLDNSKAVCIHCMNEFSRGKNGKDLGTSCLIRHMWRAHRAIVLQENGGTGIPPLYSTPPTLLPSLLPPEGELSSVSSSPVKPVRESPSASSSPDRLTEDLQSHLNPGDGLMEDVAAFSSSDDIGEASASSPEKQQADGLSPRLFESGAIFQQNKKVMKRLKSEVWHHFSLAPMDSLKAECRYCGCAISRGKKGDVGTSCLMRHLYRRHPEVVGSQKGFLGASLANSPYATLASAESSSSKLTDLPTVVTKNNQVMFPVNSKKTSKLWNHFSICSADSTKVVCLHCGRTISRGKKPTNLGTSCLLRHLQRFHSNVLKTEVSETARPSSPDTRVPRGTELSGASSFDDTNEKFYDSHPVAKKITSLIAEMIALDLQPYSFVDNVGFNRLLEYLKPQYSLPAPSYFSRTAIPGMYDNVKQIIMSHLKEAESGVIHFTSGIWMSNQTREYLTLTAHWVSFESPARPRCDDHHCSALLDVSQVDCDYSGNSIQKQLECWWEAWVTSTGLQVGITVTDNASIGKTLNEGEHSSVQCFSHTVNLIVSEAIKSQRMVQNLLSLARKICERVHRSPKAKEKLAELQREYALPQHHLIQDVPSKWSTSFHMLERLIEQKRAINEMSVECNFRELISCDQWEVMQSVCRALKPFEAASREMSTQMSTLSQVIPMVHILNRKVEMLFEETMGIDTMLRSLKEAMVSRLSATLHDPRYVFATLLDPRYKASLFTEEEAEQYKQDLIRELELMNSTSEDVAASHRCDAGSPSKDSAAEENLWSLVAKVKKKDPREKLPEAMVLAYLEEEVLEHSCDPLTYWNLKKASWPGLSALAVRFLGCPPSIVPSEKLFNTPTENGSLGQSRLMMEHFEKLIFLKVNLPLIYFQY
# UniProt Q6RFH5: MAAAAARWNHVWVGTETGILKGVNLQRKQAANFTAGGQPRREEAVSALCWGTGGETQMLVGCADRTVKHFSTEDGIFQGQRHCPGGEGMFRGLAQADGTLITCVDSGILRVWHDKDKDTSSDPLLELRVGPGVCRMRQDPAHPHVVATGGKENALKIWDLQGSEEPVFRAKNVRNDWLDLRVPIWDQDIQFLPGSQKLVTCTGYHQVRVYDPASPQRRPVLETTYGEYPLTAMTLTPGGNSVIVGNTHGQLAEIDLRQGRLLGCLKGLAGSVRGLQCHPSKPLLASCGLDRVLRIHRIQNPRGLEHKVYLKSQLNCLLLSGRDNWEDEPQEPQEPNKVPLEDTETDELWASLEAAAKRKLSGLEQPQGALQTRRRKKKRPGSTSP
# UniProt P57081: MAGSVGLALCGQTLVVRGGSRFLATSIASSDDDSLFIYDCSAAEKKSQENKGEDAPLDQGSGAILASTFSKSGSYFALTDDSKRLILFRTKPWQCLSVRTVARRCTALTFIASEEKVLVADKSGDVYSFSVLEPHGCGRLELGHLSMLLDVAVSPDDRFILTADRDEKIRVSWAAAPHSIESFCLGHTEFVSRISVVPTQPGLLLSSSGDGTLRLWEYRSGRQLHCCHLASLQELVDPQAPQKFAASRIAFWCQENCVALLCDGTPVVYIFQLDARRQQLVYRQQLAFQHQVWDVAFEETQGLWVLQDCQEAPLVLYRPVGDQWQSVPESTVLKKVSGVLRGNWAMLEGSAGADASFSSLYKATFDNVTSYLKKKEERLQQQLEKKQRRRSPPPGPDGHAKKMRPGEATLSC
# UniProt Q8N4Q0: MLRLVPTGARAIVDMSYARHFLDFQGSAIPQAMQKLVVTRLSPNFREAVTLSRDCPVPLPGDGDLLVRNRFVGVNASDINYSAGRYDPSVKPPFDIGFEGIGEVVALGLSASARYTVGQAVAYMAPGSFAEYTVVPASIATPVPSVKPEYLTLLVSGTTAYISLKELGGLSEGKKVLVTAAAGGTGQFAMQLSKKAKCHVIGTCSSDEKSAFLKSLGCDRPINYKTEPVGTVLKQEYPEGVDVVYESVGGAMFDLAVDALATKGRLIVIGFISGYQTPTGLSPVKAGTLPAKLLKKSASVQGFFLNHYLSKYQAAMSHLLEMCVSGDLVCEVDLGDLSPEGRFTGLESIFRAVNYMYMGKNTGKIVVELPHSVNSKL
# UniProt Q7Z5K2, 901-924: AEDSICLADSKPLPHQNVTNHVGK
# UniProt Q04917: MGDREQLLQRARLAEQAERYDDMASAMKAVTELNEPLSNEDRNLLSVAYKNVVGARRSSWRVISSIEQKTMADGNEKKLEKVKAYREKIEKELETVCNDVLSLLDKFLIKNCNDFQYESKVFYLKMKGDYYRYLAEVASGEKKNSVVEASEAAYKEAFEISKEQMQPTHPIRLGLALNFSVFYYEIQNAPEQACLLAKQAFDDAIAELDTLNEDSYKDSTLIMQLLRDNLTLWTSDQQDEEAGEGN
# Compound: ClCC(=O)N[C@H]1CCCc2ccccc12
# Assay: log2 mean competition ratio of IA-DTB cysteine labelling (DMSO/compound) (log2 ratio); higher = stronger cysteine engagement by compound
# Details: treatment time: 4 h, cell line lysate: HEK293T
# Method: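 IA-DTB competitive cysteine chemoproteomics in HEK293T RIPA lysate. Lysates were treated with compound 29 or 30 at 50 or 200 µM for 4 h, then IA-DTB (500 µM, 1 h), trypsin-digested, NeutrAvidin-enriched and analysed by diaPASEF. Competition ratio = intensity DMSO / intensity compound (n=4 treated, n=64 DMSO); binding: mean log2 CR ≥ 1 and p ≤ 0.05 plus QC filters. Target is the cysteine site.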
target,measurement,setting,value
WASL C431 (UniProt O00401),log2 mean competition ratio,50 µM,0.0358
same,log2 mean competition ratio,200 µM,0.0261
ZBTB44 C151 (UniProt Q8NCP5),log2 mean competition ratio,50 µM,-0.2
same,log2 mean competition ratio,200 µM,0.387
YEATS2 C1232 (UniProt Q9ULM3),log2 mean competition ratio,50 µM,0.14
same,log2 mean competition ratio,200 µM,-0.237
YTHDC2 C460 (UniProt Q9H6S0),log2 mean competition ratio,50 µM,0.0243
same,log2 mean competition ratio,200 µM,-0.278
WDHD1 C773 (UniProt O75717),log2 mean competition ratio,50 µM,0.993
same,log2 mean competition ratio,200 µM,0.298
WDR11 C1000 (UniProt Q9BZH6),log2 mean competition ratio,50 µM,-0.145
same,log2 mean competition ratio,200 µM,-0.152
WRN C1299 (UniProt Q14191),log2 mean competition ratio,50 µM,0.124
same,log2 mean competition ratio,200 µM,0.16
VPS54 C886 (UniProt Q9P1Q0),log2 mean competition ratio,50 µM,0.118
same,log2 mean competition ratio,200 µM,0.496
ZBED4 C326 (UniProt O75132),log2 mean competition ratio,50 µM,0.265
same,log2 mean competition ratio,200 µM,0.537
WDTC1 C236 (UniProt Q8N5D0),log2 mean competition ratio,50 µM,0.212
same,log2 mean competition ratio,200 µM,0.000269
XPO7 C525,log2 mean competition ratio,50 µM,0.592
same,log2 mean competition ratio,200 µM,-0.249
WDR74 C134 (UniProt Q6RFH5),log2 mean competition ratio,50 µM,-0.463
same,log2 mean competition ratio,200 µM,-0.237
WDR4 C137 (UniProt P57081),log2 mean competition ratio,50 µM,0.246
same,log2 mean competition ratio,200 µM,-0.3
WDR6 C653 (UniProt Q9NNW5),log2 mean competition ratio,50 µM,0.317
same,log2 mean competition ratio,200 µM,-0.466
ZADH2 C55 (UniProt Q8N4Q0),log2 mean competition ratio,50 µM,0.699
same,log2 mean competition ratio,200 µM,0.172
WAPL C906 (UniProt Q7Z5K2),log2 mean competition ratio,50 µM,-0.519
same,log2 mean competition ratio,200 µM,-0.209
YWHAH C112 (UniProt Q04917),log2 mean competition ratio,50 µM,-0.103
same,log2 mean competition ratio,200 µM,-0.276

# Rewritten with bars between the fields: part of the list above
target | measurement | setting | value
VPS54 C886 (UniProt Q9P1Q0) | log2 mean competition ratio | 200 µM | 0.496
ZBED4 C326 (UniProt O75132) | log2 mean competition ratio | 50 µM | 0.265

# Source: the supplement of paper PMC11732987, “Enantioselective OTUD7B fragment discovery through chemoproteomics screening and high-throughput optimisation” (Communications Chemistry, 2025)
